According to publication PMC7503767, “Alkoxyamines Designed as Potential Drugs against Plasmodium and Schistosoma Parasites” (Molecules, 2020):

Test system: Vero cells
Assay: Cytotoxicity assay (MTT)
Conditions: ratio cytotoxicity (Vero)/activity on Plasmodium
Method: Vero cells were cultured in MEM (Dutscher, Brumath, France) supplemented with 10% fetal bovine serum, 1× non-essential amino acids, 100 U/mL, 100 µg/mL penicillin/streptomycin, and 2 mM L-glutamine at 37 °C in a humidified 5% CO2 atmosphere. […] At this time, each well was microscope-examined for detection of possible precipitate formation prior to remove the supernatant by flicking the plate. 100 µL of a 0.5 mg/mL PBS-dissolved MTT tetrazolium (stock solution at 5 mg/mL) was then added to each well [48]. The plates were then incubated for 1 h at 37 °C and 5% CO2 prior to removing the supernatant and adding 100 µL of DMSO. Plates were gently shaken to dissolve formazan crystals resulting from the MTT tetrazolium reduction by living cells and read at 570 nm with BioTek µQuant Microplate Spectrophotometer.

Structure (SMILES) | Selectivity Index
CCOP(=O)(OCC)C(N(OC(C)c1ccc2ccc3cccnc3c2n1)C(C)(C)C)C(C)(C)C (stereo not shown) [1J] | 2
CCOP(=O)(OCC)C(N(OC(C)c1ccnc2c1ccc1cccnc12)C(C)(C)C)C(C)(C)C (stereo not shown) [1K] | 1
CCOP(=O)(OCC)C(N(OC(C)c1ccc2ccc3cccnc3c2n1)C(C)(C)CO)C(C)(C)C (stereo not shown) [2J] | 3
CC(ON1C(C)(C)CCCC1(C)C)c1ccncc1 (stereo not shown) [9a] | 3
